Measured values as given in publication PMC5760577.
These are yes or no findings as the source states them, for the method shown. In cells and extracts the contact can be indirect. Some binding calls cover weakened binding; strength is not graded here. For part of these data: Tags and fused reporters may be left off the sequences shown. Values belong to the molecule of their own block, whether it stands above or below them.

Chains of the proteins cited; added tags and fusions are not shown. Lines headed by an entry give the natural chain unless they say otherwise; changes in a name come on top.
UniProt Q8N6T7: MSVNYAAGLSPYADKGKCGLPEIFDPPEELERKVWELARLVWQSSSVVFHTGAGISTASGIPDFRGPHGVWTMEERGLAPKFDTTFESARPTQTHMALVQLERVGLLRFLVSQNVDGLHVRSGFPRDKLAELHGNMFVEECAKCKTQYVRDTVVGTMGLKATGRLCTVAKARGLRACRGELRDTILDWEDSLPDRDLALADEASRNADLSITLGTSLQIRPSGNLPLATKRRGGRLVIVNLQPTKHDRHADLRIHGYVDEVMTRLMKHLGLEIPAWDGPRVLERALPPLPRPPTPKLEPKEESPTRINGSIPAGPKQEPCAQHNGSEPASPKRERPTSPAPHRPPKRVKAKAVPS
UniProt Q13309: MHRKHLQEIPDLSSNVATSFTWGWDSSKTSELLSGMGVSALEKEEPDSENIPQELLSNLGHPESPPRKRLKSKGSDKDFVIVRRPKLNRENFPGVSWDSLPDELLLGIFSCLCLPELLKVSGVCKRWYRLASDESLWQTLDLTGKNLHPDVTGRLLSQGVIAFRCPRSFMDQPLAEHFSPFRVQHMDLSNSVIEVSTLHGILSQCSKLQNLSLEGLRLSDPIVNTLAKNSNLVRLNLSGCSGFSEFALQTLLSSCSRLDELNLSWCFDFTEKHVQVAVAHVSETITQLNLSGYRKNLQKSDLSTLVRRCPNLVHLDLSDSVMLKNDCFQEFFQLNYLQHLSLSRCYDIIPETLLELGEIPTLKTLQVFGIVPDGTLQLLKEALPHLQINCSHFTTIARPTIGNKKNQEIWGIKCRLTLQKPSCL
UniProt Q04206: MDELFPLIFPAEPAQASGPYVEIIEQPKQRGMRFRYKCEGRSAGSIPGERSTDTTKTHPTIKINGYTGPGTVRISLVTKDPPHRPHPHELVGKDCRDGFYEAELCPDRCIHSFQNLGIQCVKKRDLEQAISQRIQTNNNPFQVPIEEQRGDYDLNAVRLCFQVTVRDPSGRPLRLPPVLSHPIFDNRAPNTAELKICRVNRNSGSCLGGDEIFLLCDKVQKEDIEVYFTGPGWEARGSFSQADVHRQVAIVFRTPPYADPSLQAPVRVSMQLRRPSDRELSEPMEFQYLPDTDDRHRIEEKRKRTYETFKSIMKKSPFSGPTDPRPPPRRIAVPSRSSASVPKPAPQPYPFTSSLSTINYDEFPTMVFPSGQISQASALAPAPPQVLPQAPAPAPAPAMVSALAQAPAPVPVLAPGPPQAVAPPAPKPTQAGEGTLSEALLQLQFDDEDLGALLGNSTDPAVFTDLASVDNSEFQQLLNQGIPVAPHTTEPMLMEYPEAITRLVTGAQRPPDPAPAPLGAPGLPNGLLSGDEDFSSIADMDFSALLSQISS
UniProt Q96KQ7: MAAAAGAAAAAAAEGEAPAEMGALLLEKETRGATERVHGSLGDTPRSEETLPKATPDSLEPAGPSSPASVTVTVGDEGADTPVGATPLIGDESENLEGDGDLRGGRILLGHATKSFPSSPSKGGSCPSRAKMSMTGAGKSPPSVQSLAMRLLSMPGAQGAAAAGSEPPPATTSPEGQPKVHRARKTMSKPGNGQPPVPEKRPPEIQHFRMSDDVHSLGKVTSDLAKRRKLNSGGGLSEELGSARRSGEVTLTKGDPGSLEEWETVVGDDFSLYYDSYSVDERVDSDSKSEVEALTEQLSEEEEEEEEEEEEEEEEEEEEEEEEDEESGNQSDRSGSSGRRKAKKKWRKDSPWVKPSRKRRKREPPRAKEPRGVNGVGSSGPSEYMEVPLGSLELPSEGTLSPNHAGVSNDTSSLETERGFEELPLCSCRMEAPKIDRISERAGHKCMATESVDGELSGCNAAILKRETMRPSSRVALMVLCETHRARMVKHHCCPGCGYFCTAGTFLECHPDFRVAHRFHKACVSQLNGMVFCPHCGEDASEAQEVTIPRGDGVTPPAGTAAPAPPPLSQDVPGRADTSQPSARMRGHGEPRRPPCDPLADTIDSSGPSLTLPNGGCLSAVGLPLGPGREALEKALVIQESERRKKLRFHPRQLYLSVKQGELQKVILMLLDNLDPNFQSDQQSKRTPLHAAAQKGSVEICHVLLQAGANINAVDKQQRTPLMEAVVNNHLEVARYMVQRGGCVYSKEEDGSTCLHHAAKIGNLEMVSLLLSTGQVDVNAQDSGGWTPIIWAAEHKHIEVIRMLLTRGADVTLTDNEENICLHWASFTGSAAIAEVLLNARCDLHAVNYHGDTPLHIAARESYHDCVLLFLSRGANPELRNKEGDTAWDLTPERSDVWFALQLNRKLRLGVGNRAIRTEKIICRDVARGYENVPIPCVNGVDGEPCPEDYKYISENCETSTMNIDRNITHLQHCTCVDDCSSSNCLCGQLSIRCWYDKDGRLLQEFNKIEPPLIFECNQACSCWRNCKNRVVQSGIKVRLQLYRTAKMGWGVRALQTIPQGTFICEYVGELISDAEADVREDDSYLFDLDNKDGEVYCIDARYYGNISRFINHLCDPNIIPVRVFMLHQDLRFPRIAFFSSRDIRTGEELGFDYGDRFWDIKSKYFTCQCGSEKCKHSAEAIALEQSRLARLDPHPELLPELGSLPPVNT

Key:
SirT6-HA = SirT6-HA (UniProt Q8N6T7); test: co-IP; HA immunoprecipitation (α-HA resin) of extracts from 293F cells co-transfected with SirT6-HA and an H3K9 HMT or a Myc-tagged Suv39h1 deletion mutant; washes with BC100 and BC500 (500 mM KCl)
FLAG-SKP2 [1] = biological target: FLAG-SKP2 (UniProt Q13309); test: co-IP; supplementary figures cited beside Fig. 5b (printed 'Supplementary Figure 5b, c' and 'Supplementary Figure 6c'); constructs and format not shown
FLAG-SKP2 [2] = biological target: FLAG-SKP2 (UniProt Q13309); test: co-IP; FLAG immunoprecipitation of extracts from 293F cells transfected with FLAG-SKP2 (or FLAG-Cul2) together with Myc-Suv39h1 or SirT6-HA
FLAG-RelA = FLAG-RelA (UniProt Q04206); test: co-IP; anti-FLAG resin, extracts from 293F cells transfected with FLAG-RelA and Myc-Suv39h1, in presence or absence of TNFα

Molecule: RelA (as in the co-precipitation with SKP2) (from UniProt Q04206 1-551)
binding (FLAG-SKP2 [1]): binds

Molecule: SirT6-HA (from UniProt Q8N6T7 1-355) (enzyme)
binding (FLAG-SKP2 [2]): binds | binding (FLAG-SKP2 [1]): binds

B1: Myc-Suv39h1 full-length (enzyme, UniProt O54864 1-412)
chain: MAENLKGCSVCCKSSWNQLQDLCRLAKLSCPALGVSKKNLYDFEVEYLCDYKKIREQEYYLVKWRGYPDSENTWEPRQNLKCIRVLKQFHKDLERELVRRHRRSKPPRHLDPNLANYLVQKAKQRRALQRWEQELNAKRSHLGRITVENEVDLDGPPRSFVYINEYRVGEGITLNQVAVGCECQDCLLAPTGGCCPGASLHKFAYNDQGQVRLKAGQPIYECNSRCCCGYDCPNRVVQKGIRYDLCIFRTNDGRGWGVRTLEKIRKNSFVMEYVGEIITSEEAERRGQIYDRQGATYLFDLDYVEDVYTVDAAYYGNISHFVNHSCDPNLQVYNVFIDNLDERLPRIAFFATRTIWAGEELTFDYNMQVDPVDMESTRMDSNFGLAGLPGSPKKRVRIECKCGTTACRKYLF
binding (FLAG-RelA): binds | binding (FLAG-SKP2 [2]): binds | binding (SirT6-HA): binds

B2: Myc-tagged Suv39h1 deletion mutant with the SET and POST-SET domains (the last 172 residues) (domain or fragment, UniProt O54864 240-412)
chain: GIRYDLCIFRTNDGRGWGVRTLEKIRKNSFVMEYVGEIITSEEAERRGQIYDRQGATYLFDLDYVEDVYTVDAAYYGNISHFVNHSCDPNLQVYNVFIDNLDERLPRIAFFATRTIWAGEELTFDYNMQVDPVDMESTRMDSNFGLAGLPGSPKKRVRIECKCGTTACRKYLF
binding (SirT6-HA): binds

Continued, values first:

binding (SirT6-HA): binds
Molecule: G9a (from UniProt Q96KQ7 1-1210) (enzyme)

binding (FLAG-SKP2 [1]): binds
Molecule: SirT6 H133Y (from UniProt Q8N6T7 1-355) (enzyme)
